Substitutions are numbered along the chain they refer to. No constants are given. Whether binding was seen depends on the method and setting. Some entries that bind do so weakly or less than the wild type.
Experiments:
Test in all cases: two-hybrid; yeast reporter strain L40 co-transformed with pB27 (LexA DNA binding domain) Rab4b forms as bait and pACT2-VPS52 (GAL4 activation domain) as prey; medium lacking leucine and tryptophan; LacZ reporter read with X-Gal
Rab4bQ67L = target: T1, Rab4bQ67L (UniProt P61018)
T1 sequence: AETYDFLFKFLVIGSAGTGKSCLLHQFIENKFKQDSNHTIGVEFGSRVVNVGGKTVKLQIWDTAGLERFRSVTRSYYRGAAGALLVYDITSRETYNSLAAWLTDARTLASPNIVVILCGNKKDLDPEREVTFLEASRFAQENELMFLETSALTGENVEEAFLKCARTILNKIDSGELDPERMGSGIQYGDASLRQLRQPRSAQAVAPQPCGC

Rab4bN121I = target: T2, Rab4bN121I (UniProt P61018)
T2 sequence: T1 sequence with L66Q, N120I

Rab4bS22N = target: T3, Rab4bS22N (UniProt P61018)
T3 sequence: T1 sequence with S21N, L66Q

B1: full length VPS52 protein (aminoacid 1 to 723) (protein, UniProt Q8N1B4 1-723)
chain: MAAAATMAAAARELVLRAGTSDMEEEEGPLAGGPGLQEPLQLGELDITSDEFILDEVDVHIQANLEDELVKEALKTGVDLRHYSKQVELELQQIEQKSIRDYIQESENIASLHNQITACDAVLERMEQMLGAFQSDLSSISSEIRTLQEQSGAMNIRLRNRQAVRGKLGELVDGLVVPSALVTAILEAPVTEPRFLEQLQELDAKAAAVREQEARGTAACADVRGVLDRLRVKAVTKIREFILQKIYSFRKPMTNYQIPQTALLKYRFFYQFLLGNERATAKEIRDEYVETLSKIYLSYYRSYLGRLMKVQYEEVAEKDDLMGVEDTAKKGFFSKPSLRSRNTIFTLGTRGSVISPTELEAPILVPHTAQRGEQRYPFEALFRSQHYALLDNSCREYLFICEFFVVSGPAAHDLFHAVMGRTLSMTLKHLDSYLADCYDAIAVFLCIHIVLRFRNIAAKRDVPALDRYWEQVLALLWPRFELILEMNVQSVRSTDPQRLGGLDTRPHYITRRYAEFSSALVSINQTIPNERTMQLLGQLQVEVENFVLRVAAEFSSRKEQLVFLINNYDMMLGVLMERAADDSKEVESFQQLLNARTQEFIEELLSPPFGGLVAFVKEAEALIERGQAERLRGEEARVTQLIRGFGSSWKSSVESLSQDVMRSFTNFRNGTSIIQGALTQLIQLYHRFHRVLSQPQLRALPARAELINIHHLMVELKKHKPNF
Rab4bQ67L
  binding: binds
Rab4bN121I
  binding: no binding
Rab4bS22N
  binding: no binding

Reference: article PMC11020649
